{"sequences": {"note": "By UniProt entry, the sequences of proteins in these tests, tags left out. Where a name states a change or a piece, a line headed by the entry shows the natural chain unless it says otherwise.", "UniProt Q80SS6": "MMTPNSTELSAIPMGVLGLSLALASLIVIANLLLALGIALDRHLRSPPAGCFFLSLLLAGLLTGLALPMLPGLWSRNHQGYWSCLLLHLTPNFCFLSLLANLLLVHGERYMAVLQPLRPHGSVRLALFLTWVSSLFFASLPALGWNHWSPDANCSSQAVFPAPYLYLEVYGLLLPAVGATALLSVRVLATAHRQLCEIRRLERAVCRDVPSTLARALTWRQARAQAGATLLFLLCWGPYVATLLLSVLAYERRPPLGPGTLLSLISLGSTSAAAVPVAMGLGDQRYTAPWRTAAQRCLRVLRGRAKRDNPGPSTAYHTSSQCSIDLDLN"}, "source": "paper PMC3203117", "about": "“The Bile Acid Receptor GPBAR-1 (TGR5) Modulates Integrity of Intestinal Barrier and Immune Response to Experimental Colitis” (PLoS ONE, 2011)", "molecular_target": "T1, GP-BAR1 (TGR5) (Mus musculus, UniProt Q80SS6)", "T1 construct": "gene Gpbar1", "conditions": "agonist; native receptor; same compound tested at 10 µM in spleen monocytes of wild type and GP-BAR1-null mice as control", "data": [{"smiles": "O=C(O)c1cn(C2CC2)c2cc(N3CCNCC3)c(F)cc2c1=O", "note": "[compound 2, ciprofloxacin]", "values": [{"measurement": "EC50", "result": "~8", "unit": "µM"}]}]}
